Data as given in patent publication US7279497B2, “Benzopyran derivatives substituted with secondary amines including imidazole, their preparation and pharmaceutical compositions containing them” (Korea Research Institute of Chemical Technology, priority 2002, dated 2007).
For some of these results: For at least one compound, name, drawing or mass did not settle the structure. Some results were stated once for a whole list of compounds, not compound by compound.

What was measured:
[1] = tested on: Chick chorioallantoic membrane (CAM); assay: CAM (chorioallantoic membrane) assay; assay type: in vivo; conditions: positive control, 1 μg/egg
Protocol: Chick chorioallantoic membrane (CAM) assays were performed to measure the inhibitory effects on angiogenesis in vivo of the compounds of the formula 1.
Fertilized chick eggs were incubated under constant humidified (90%) egg breeder at 37° C. On the third day of incubation, about 2 mL of egg albumin was aspirated by an 18-gauge hypodermic needle through the small hole drilled at the narrow end of the eggs, to detach the developing CAM from the shell. And the shell covering the air sac was punched out and removed by forcep, and the shell membrane on the floor of the air sac was peeled away. After more incubation of two more days, sample-loaded thermanox coverslips were air-dried, and applied to the CAM surface to test the angiogenic inhibition by the test compounds. Three days later, 1 to 2 mL of 10% fat emulsion (Intralipose) was injected into the chorioallantoic and observed avascular zone under a dissecting microscope. The negative control was implanted only thermanox coverslip, while the positive control was treated with retinoic acid (1 μg/egg). […] Independent experiment was repeated three times and at least more than 20 eggs in each experiment were used.

SPF SD rats = conditions: single oral dose;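 further: Six-week-old animals, two per group, followed across an observation period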

Compound: CC1=C(/C=C/C(C)=C/C=C/C(C)=C/C(=O)O)C(C)(C)CCC1 [retinoic acid, reference compound]
- microvessel formation [1]: significantly inhibited microvessel formation

Compound: COC(OC)[C@@]1(C)Oc2ccc(N)cc2[C@@H](N(Cc2ncc[nH]2)c2ccc(Cl)cc2)[C@@H]1O [Example 24, (2S,3S,4R)-6-amino-3,4-dihydro-2-dimethoxymethyl-3-hydroxy-2-methyl-4-[N-(4-chlorophenyl)-N-(1H-imidazol-2-ylmethyl)amino]-2H-1-benzopyran]
- hematology, serum chemistry parameters and macroscopic observation (SPF SD rats): no drug-related changes were observed

Compound: COC(OC)[C@]1(C)Oc2ccc(N)cc2[C@H](N(Cc2ncc[nH]2)c2ccc(OC(F)(F)F)cc2)[C@H]1O [Example 26, (2R,3R,4S)-6-amino-3,4-dihydro-2-dimethoxymethyl-3-hydroxy-2-methyl-4-[N-(4-trifluoromethoxyphenyl)-N-(1H-imidazol-2-ylmethyl)amino]-2H-1-benzopyran]
- hematology, serum chemistry parameters and macroscopic observation (SPF SD rats): no drug-related changes were observed

Compound: COC(OC)[C@@]1(C)Oc2ccc(N)cc2[C@@H](N(Cc2ncc[nH]2)c2ccc(OC(F)(F)F)cc2)[C@@H]1O [Example 35, (2S,3S,4R)-6-amino-3,4-dihydro-2-dimethoxymethyl-3-hydroxy-2-methyl-4-[N-(4-trifluoromethoxyphenyl)-N-(1H-imidazol-2-ylmethyl)amino]-2H-1-benzopyran]
- hematology, serum chemistry parameters and macroscopic observation (SPF SD rats): no drug-related changes were observed

Compound: COC(OC)[C@@]1(C)Oc2ccc([N+](=O)[O-])cc2[C@@H](N(Cc2ncc[nH]2)c2cccc(Cl)c2)[C@@H]1O [Example 20, (2S,3S,4R)-3,4-dihydro-2-dimethoxymethyl-3-hydroxy-2-methyl-6-nitro-4-[N-(3-chlorophenyl)-N-(1H-imidazol-2-ylmethyl)amino]-2H-1-benzopyran]
- hematology, serum chemistry parameters and macroscopic observation (SPF SD rats): no drug-related changes were observed

Compound: COC(OC)[C@]1(C)Oc2ccc([N+](=O)[O-])cc2[C@@H](N(Cc2ncc[nH]2)c2ccc(Cl)cc2)[C@@H]1O [Example 4, (2R,3S,4R)-3,4-dihydro-2-dimethoxymethyl-3-hydroxy-2-methyl-6-nitro-4-[N-(4-chlorophenyl)-N-(1H-imidazol-2-ylmethyl)amino]-2H-1-benzopyran]
- hematology, serum chemistry parameters and macroscopic observation (SPF SD rats): no drug-related changes were observed

Compound: COC(OC)[C@]1(C)Oc2ccc([N+](=O)[O-])cc2[C@H](N(Cc2ncc[nH]2)c2cccc(Cl)c2)[C@H]1O [Example 19, (2R,3R,4S)-3,4-dihydro-2-dimethoxymethyl-3-hydroxy-2-methyl-6-nitro-4-[N-(3-chlorophenyl)-N-(1H-imidazol-2-ylmethyl)amino]-2H-1-benzopyran]
- hematology, serum chemistry parameters and macroscopic observation (SPF SD rats): no drug-related changes were observed

Compound: COC(OC)[C@@]1(C)Oc2ccc([N+](=O)[O-])cc2[C@@H](N(Cc2ncc[nH]2)c2ccc(F)cc2)[C@@H]1O [Example 15, (2S,3S,4R)-3,4-dihydro-2-dimethoxymethyl-3-hydroxy-2-methyl-6-nitro-4-[N-(4-fluorophenyl)-N-(1H-imidazol-2-ylmethyl)amino]-2H-1-benzopyran]
- hematology, serum chemistry parameters and macroscopic observation (SPF SD rats): no drug-related changes were observed

Compound: COC(OC)[C@@]1(C)Oc2ccc([N+](=O)[O-])cc2[C@@H](N(Cc2ncc[nH]2)c2ccc(Cl)cc2)[C@@H]1O [Example 1, (2S,3S,4R)-3,4-dihydro-2-dimethoxymethyl-3-hydroxy-2-methyl-6-nitro-4-[N-(4-chlorophenyl)-N-(1H-imidazol-2-ylmethyl)amino]-2H-1-benzopyran]
- hematology, serum chemistry parameters and macroscopic observation (SPF SD rats): no drug-related changes were observed

Compound: COc1ccccc1N(Cc1ncc[nH]1)[C@@H]1c2cc(N)ccc2O[C@](C)(C(OC)OC)[C@H]1O [Example 31, (2S,3S,4R)-6-amino-3,4-dihydro-2-dimethoxymethyl-3-hydroxy-2-methyl-4-[N-(2-methoxyphenyl)-N-(1H-imidazol-2-ylmethyl)amino]-2H-1-benzopyran]
- hematology, serum chemistry parameters and macroscopic observation (SPF SD rats): no drug-related changes were observed
